Data published in article PMC6761206.
Results are given in words; binding and its absence hold for the method and conditions named. In cells and extracts the contact can be indirect. Some results given as binding are weak or reduced against the parent protein; the word gives no strength.

Chains of the proteins cited; added tags and fusions are not shown. Lines headed by an entry give the natural chain unless they say otherwise; changes in a name come on top.
UniProt Q9HAU4: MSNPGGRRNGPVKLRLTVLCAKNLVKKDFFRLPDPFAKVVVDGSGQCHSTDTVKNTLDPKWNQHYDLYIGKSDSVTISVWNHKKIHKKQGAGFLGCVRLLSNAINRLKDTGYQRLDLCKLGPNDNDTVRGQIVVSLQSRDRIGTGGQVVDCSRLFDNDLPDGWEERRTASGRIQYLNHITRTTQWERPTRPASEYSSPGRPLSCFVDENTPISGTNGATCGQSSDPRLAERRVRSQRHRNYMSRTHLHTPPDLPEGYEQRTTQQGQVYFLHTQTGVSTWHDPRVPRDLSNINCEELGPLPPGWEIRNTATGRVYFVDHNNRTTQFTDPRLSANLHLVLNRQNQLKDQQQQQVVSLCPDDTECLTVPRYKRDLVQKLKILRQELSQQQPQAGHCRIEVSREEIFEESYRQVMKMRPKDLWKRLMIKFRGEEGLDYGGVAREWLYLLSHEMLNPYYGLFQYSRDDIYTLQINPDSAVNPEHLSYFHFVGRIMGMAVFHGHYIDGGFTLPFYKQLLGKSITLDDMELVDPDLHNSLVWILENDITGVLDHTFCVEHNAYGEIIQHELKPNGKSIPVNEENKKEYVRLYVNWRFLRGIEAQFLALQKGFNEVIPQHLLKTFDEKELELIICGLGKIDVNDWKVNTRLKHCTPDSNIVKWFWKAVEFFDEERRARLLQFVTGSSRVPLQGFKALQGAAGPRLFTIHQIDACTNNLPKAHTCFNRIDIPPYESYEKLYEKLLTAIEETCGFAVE
UniProt O15105: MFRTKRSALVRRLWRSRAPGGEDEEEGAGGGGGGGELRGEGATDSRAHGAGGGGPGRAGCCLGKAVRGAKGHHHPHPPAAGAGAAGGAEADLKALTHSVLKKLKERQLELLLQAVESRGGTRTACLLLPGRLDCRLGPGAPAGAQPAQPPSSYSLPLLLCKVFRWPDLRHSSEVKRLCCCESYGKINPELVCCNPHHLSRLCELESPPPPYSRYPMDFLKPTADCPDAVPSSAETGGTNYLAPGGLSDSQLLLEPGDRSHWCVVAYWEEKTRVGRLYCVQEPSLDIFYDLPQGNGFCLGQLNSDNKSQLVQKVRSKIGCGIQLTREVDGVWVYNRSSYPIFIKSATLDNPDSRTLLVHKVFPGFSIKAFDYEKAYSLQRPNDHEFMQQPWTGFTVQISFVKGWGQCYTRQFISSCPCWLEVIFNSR

Experiments:
[1] = target: MYC-tagged SMURF2(FF), Y314F/Y434F (UniProt Q9HAU4); experiment: co-IP; 293T cells transfected with MYC-tagged SMURF2 or mutants and Flag-tagged SMAD7 and/or Flag-tagged c-SRC; lysed after 48 h in ELB (250 mM NaCl, 0.5% NP-40, 50 mM HEPES pH 7.3); immunoprecipitated with anti-MYC (affinity resin); immunoblot
[2] = target: MYC-tagged SMURF2, wild type (UniProt Q9HAU4); experiment: as above

**Q.** Which results are given for “FLAG-tagged SMAD7 (from UniProt O15105 1-426)”?
**A.** binding [1]: binds; binding [2]: binds
